Results as given in patent US4477440A, “Renin inhibitors containing an n-terminal disulfide cycle” (Merck & Co., Inc., priority 1983, dated 1984).
At least one peptide structure holds a part that was inferred or is arguable (an end, a ring closure or a residue). Positions of bridges follow the written chain, without caps; N, C: chain ends. Non-standard residues stand in square brackets, D forms with d. Residues, ends and D or L forms follow the SMILES beside them. *: point of attachment. Sta = CC(C)C[C@H](N)[C@@H](O)CC(=O)O; hCys = N[C@@H](CCS)C(=O)O; Boc = CC(C)(C)OC(=O)*

System: hog kidney renin
Assay: Hog renin inhibition
Format: biochemical
Details: pH 7.3, concentration producing 50% inhibition of renin activity, read-out: I50

Compound | IC50 [µM]
COC(=O)[C@H](Cc1ccccc1)NC(=O)[C@H](CC(C)C)NC(=O)C[C@H](O)[C@H](CC(C)C)NC(=O)[C@@H]1CCSSCC[C@H](NC(=O)OC(C)(C)C)C(=O)N2CCC[C@H]2C(=O)N[C@@H](Cc2ccccc2)C(=O)N1 (Boc-[hCys]PF[hCys][Sta]LF-OMe; disulfide 1-4) | 0.29
COC(=O)[C@H](Cc1ccccc1)NC(=O)[C@H](CC(C)C)NC(=O)C[C@H](O)[C@H](CC(C)C)NC(=O)[C@@H]1CCSSC[C@H](N)C(=O)N2CCC[C@H]2C(=O)N[C@@H](Cc2ccccc2)C(=O)N1 (H-CPF[hCys][Sta]LF-OMe; disulfide 1-4) | 3.1
COC(=O)[C@H](Cc1ccccc1)NC(=O)[C@H](CC(C)C)NC(=O)C[C@H](O)[C@H](CC(C)C)NC(=O)[C@@H]1CCSSCC[C@H](N)C(=O)N2CCC[C@H]2C(=O)N[C@@H](Cc2ccccc2)C(=O)N1 [drawing 33] (H-[hCys]PF[hCys][Sta]LF-OMe; disulfide 1-4) | 0.049

The remaining lines, values ahead:

IC50 [µM] | Compound
0.28 | COC(=O)[C@H](Cc1ccccc1)NC(=O)[C@H](CC(C)C)NC(=O)C[C@H](O)[C@H](CC(C)C)NC(=O)[C@@H]1CSSCC[C@H](N)C(=O)N2CCC[C@H]2C(=O)N[C@@H](Cc2ccccc2)C(=O)N1 (H-[hCys]PFC[Sta]LF-OMe; disulfide 1-4)
2.2 | COC(=O)[C@H](Cc1ccccc1)NC(=O)[C@H](CC(C)C)NC(=O)C[C@H](O)[C@H](CC(C)C)NC(=O)[C@@H]1CSSC[C@H](N)C(=O)N2CCC[C@H]2C(=O)N[C@@H](Cc2ccccc2)C(=O)N1 (HELM PEPTIDE1{C.P.F.C.[CC(C)C[C@H](N[*:1])[C@@H](O)CC(=O)[*:2]].L.F.[CO[*:1]]}$PEPTIDE1,PEPTIDE1,1:R3-4:R3$$$V2.0)
